Results are given in words; binding and its absence hold for the method and conditions named. In cells and extracts the contact can be indirect. Some results given as binding are weak or reduced against the parent protein; the word gives no strength.
Biological target: JAK1 (human (endogenous in Caski and SW756)) (UniProt P23458)
Experiment: co-IP; immunoprecipitation with anti-JAK1 antibody (Pierce co-immunoprecipitation kit) from Caski/Ctrl, Caski/B3, SW756/Ctrl and SW756/B3 cells; immunoblot for STAT1 and STAT3; more interaction in SERPINB3-expressing cells

Protein sequences, listed by entry. Tags and fused reporters are not part of them.
UniProt P23458: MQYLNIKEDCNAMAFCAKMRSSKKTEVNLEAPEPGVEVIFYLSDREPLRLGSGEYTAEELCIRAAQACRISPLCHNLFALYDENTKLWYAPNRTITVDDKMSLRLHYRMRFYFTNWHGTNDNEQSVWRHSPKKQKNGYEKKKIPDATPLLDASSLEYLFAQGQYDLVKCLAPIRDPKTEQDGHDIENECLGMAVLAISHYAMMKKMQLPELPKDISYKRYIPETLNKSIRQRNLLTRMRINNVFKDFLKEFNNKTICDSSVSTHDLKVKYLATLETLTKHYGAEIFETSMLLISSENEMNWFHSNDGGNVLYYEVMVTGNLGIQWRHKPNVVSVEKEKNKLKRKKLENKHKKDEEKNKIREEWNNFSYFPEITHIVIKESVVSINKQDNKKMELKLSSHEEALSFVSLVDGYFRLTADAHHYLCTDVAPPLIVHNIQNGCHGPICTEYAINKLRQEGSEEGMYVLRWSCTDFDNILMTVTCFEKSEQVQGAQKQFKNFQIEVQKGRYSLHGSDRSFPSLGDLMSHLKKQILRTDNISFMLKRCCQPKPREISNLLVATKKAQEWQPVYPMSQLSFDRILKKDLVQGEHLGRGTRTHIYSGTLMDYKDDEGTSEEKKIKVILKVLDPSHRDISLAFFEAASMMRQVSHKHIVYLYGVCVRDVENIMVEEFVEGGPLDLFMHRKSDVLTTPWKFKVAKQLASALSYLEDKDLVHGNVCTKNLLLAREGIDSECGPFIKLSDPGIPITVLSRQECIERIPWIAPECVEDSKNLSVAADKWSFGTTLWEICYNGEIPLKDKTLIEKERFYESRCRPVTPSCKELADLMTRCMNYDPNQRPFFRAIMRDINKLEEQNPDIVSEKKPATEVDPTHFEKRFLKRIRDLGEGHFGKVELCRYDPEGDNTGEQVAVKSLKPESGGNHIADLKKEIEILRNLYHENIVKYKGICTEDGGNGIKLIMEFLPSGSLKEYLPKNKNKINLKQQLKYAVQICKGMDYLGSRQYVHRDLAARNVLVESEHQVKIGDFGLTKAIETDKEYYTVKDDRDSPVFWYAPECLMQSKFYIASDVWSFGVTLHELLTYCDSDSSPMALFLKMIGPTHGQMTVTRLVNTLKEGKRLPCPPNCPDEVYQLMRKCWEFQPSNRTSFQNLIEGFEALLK
UniProt P42224: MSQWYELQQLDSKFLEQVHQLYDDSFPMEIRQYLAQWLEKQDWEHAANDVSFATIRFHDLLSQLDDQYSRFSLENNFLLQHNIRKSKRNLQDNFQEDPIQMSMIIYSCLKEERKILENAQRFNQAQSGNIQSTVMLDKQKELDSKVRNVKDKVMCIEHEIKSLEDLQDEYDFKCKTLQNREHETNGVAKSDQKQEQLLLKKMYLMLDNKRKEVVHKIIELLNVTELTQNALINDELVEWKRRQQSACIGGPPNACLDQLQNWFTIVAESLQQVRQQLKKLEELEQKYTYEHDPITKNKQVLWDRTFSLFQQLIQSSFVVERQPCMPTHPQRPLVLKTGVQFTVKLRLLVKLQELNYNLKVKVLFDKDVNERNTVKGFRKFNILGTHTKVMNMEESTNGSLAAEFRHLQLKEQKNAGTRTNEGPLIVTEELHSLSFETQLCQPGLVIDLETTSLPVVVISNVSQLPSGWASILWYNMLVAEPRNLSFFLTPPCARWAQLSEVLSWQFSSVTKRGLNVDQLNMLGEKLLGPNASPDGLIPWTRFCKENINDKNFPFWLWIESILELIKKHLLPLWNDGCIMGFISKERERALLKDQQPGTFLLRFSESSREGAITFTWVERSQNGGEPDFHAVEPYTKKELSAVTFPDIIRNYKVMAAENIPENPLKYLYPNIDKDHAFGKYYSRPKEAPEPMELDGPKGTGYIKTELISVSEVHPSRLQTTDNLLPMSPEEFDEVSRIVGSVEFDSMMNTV

With STAT1 (from UniProt P42224 1-750) the binding was “binds”.

Reference: paper PMC10378164
